Laboratory results taken from patent US20250090640A1, “METHOD OF IMPROVING THE VIABILITY OF A DENTAL IMPLANT” (priority 2023, published 2025).
Not every detail of the peptide structures is certain; ends, links or a residue may be inferred.

Experiments:
Format in all cases: in vivo, Sprague-Dawley rats
OVX rats = test system: OVX rats
Description: In this study, Sprague-Dawley rats were divided into three groups (Table 1) to study the impact of abaloparatide treatment on implant viability in rats in a model that mimics osteoporosis by ovariectomy (OVX).
At four months, rats in the OVX groups were ovariectomized, and bone depletion was allowed to occur for two months. At this point, daily injections of abaloparatide (Abalo) or vehicle (VEH) began 42 days prior to implant surgery and were continued out to 21 days past implant surgery.
As shown in FIGS. 2A-2C, 3A-3F, and 4A-4C, altered bone metabolism in the OVX rats and residual ridge defects complicated implant placement. […] However, abaloparatide did increase bone mass density in the femoral shaft and intact maxillac on the non-extraction side of the jaw (FIGS. 4A and 4B, respectively). With continued reference to FIGS. 4A and 4B, there was a 150% increase in mean BMD in OVX rats treated with ABL versus VEH.

M1 extraction sockets [1] = experiment: Example 2: micro-CT of maxillary M1 extraction socket healing in young rats
[2] = test system: osseous peri-implant defects; experiment: Example 2: micro-CT of peri-implant defects after implant placement in young rats; conditions: for peri-implant BMD compared to VEH / peri-implant BVF compared to VEH: ABL 25 μg/kg daily s.c.
femur = experiment: Example 2: micro-CT of femurs (systemic effect)
M1 extraction sockets [3] = experiment: Example 2: histology/histomorphometry of extraction sockets
[4] = test system: osseous peri-implant defects; experiment: Example 2: histomorphometry of implant samples (MB, bone-to-implant contact)
[5] = 10 days post-extraction, ABL 25 μg/kg daily s.c. vs vehicle
[6] = 21 d after implant placement, micro-CT
[7] = 28 d after implant placement, micro-CT
[8] = 10 days post-extraction, histomorphometry

CC[C@H](C)[C@H](NC(=O)[C@H](CO)NC(=O)[C@H](CCCCN)NC(=O)CNC(=O)[C@H](CCCCN)NC(=O)[C@H](CC(=O)O)NC(=O)[C@H](Cc1c[nH]cn1)NC(=O)[C@H](CC(C)C)NC(=O)[C@H](CC(C)C)NC(=O)[C@H](CCC(N)=O)NC(=O)[C@H](Cc1c[nH]cn1)NC(=O)[C@H](CCC(=O)O)NC(=O)[C@H](CO)NC(=O)[C@@H](NC(=O)[C@H](C)N)C(C)C)C(=O)N[C@@H](CCC(N)=O)C(=O)N[C@@H](CC(=O)O)C(=O)N[C@@H](CC(C)C)C(=O)N[C@@H](CCCNC(=N)N)C(=O)N[C@@H](CCCNC(=N)N)C(=O)N[C@@H](CCCNC(=N)N)C(=O)N[C@@H](CCC(=O)O)C(=O)N[C@@H](CC(C)C)C(=O)N[C@@H](CC(C)C)C(=O)N[C@@H](CCC(=O)O)C(=O)N[C@@H](CCCCN)C(=O)N[C@@H](CC(C)C)C(=O)N[C@@H](CC(C)C)C(=O)NC(C)(C)C(=O)N[C@@H](CCCCN)C(=O)N[C@@H](CC(C)C)C(=O)N[C@@H](Cc1c[nH]cn1)C(=O)N[C@H](C(=O)N[C@@H](C)C(N)=O)[C@@H](C)O [abaloparatide, [Glu^22,25, Leu^23,28,31, Aib^29, Lys^26,30]hPTHrP(1-34)NH2]
increase in mean BMD, ABL versus VEH (OVX rats; FIGS. 4A and 4B): 150%
bone mass density in the femoral shaft (OVX rats; daily injections from 42 days prior to 21 days past implant surgery, vs vehicle, FIG. 4A): increase
bone mass density in intact maxillae on the non-extraction side of the jaw (OVX rats; daily injections from 42 days prior to 21 days past implant surgery, vs vehicle, FIG. 4B): increase
BMD of extraction socket, difference between treatment groups (M1 extraction sockets [1]; [5]): no significant differences
BVF of extraction socket, difference between treatment groups (M1 extraction sockets [1]; [5]): no significant differences
BVF of regenerated bone in extraction sockets versus vehicle-treated controls (M1 extraction sockets [1]; 42 days post-extraction, ABL 25 μg/kg daily s.c., p=0.004): statistically significant increases
BMD of regenerated bone in extraction sockets versus vehicle-treated controls (M1 extraction sockets [1]; 42 days post-extraction, ABL 25 μg/kg daily s.c., p=0.006): statistically significant increases
peri-implant BMD compared to VEH [2, 6]: No significant differences
peri-implant BVF compared to VEH [2, 6]: No significant differences
peri-implant BMD compared to VEH [2, 7]: No significant differences
peri-implant BVF compared to VEH [2, 7]: No significant differences
change in peri-implant BVF between the 21 day and 28 day time points ([2]; ABL-treated animals, micro-CT, FIG. 8C): did not show differences
change in peri-implant BMD between the 21 day and 28 day time points ([2]; ABL-treated animals, micro-CT, FIG. 8D): did not show differences
bone maturation in the earlier phase of healing ([2]; peri-implant, micro-CT, vs VEH): accelerated
time of reaching overall peak BVF and BMD ([2]; peri-implant, post-implant placement, before the VEH group): ≤ 21 days
cortical BMD (femur mid-diaphysis), between-group difference (femur; ABL 25 μg/kg daily s.c. vs VEH, FIG. 9C): No significant between-group differences
trabecular BMD of the distal femoral metaphysis, ABL vs VEH (femur; after 6, 9, and 10 weeks of treatment, ABL 25 μg/kg daily s.c.): significantly greater
BV (bone area/tissue area) in extraction sockets, difference between groups (M1 extraction sockets [3]; [8]): No significant differences
MB (mineralized bone area fraction) in extraction sockets, difference between groups (M1 extraction sockets [3]; [8]): No significant differences
BV in extraction sockets, difference between groups (M1 extraction sockets [3]; 42 days post-extraction, histomorphometry, FIG. 10B): No significant differences
MB in extraction sockets, ABL group vs VEH (M1 extraction sockets [3]; 42 days post-extraction, osteoid areas excluded, p=0.03, FIG. 10C): significantly higher
MB in peri-implant defect as compared to the control ([4]; 21 days post-implant placement, p=0.01, FIG. 11B): significantly higher
Bone-to-implant contact; defect area (Mean ± SD) ([4]; 21 days postop): 0.42 ± 0.12
Bone-to-implant contact; total surface (Mean ± SD) ([4]; 21 days postop): 0.59 ± 0.16
Bone-to-implant contact; defect area (Mean ± SD) ([4]; 28 days postop): 0.36 ± 0.22
Bone-to-implant contact; total surface (Mean ± SD) ([4]; 28 days postop): 0.45 ± 0.24
mean BIC in the length of the osseous-well-shaped defect area alone, difference among groups ([4]; histomorphometric analysis): not significantly different
mean BIC in the total length of the implant surface, difference among groups ([4]; histomorphometric analysis): not significantly different
time by which peak MBA in the defect area was reached prior to the VEH group ([4]; post-implant placement): 1 week
time of reaching peak MBA in the defect area ([4]; post-implant placement): ≤ 21 days
significant increase in MB between 21 and 28 days ([4]; within ABL group, post-implant placement): not
